The values that follow come from publication PMC6898186.

Chains of the proteins cited; added tags and fusions are not shown.
UniProt P98170: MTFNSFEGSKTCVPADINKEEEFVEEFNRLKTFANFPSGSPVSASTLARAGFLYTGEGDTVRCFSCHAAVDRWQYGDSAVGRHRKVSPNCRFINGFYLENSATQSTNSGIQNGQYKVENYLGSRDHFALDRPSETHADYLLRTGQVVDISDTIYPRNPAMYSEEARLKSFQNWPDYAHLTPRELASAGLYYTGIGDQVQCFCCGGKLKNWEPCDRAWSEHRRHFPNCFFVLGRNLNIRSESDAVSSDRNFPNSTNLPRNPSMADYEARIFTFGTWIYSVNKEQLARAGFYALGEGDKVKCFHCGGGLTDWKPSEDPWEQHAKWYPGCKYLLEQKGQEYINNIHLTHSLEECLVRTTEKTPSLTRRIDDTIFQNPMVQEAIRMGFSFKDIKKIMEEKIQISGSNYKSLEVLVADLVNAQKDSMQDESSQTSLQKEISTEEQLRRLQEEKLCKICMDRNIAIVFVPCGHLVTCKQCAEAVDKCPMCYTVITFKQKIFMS
UniProt P08047: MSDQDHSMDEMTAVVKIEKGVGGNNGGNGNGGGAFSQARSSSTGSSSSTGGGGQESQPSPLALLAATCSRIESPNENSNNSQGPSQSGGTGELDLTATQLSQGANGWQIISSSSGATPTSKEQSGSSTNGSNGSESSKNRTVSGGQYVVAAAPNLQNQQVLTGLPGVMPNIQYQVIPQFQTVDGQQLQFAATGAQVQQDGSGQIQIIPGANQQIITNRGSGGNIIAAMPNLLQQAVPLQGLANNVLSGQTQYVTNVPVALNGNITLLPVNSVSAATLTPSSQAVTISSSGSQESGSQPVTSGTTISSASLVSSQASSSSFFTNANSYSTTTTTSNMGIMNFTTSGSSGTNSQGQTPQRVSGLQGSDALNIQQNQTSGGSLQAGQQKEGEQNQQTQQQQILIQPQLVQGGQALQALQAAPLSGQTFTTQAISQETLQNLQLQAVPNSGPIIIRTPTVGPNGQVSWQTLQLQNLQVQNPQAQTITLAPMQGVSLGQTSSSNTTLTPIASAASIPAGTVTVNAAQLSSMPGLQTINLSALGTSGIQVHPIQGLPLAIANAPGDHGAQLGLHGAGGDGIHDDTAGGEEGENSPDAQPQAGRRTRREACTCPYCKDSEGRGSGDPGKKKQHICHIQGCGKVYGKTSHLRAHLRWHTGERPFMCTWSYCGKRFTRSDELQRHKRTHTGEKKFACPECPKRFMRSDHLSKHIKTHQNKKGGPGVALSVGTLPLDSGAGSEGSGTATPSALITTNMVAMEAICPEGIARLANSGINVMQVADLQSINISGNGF

For assay [1], the target named is HA-tagged XIAP (X-linked inhibitor of apoptosis) (UniProt P98170). Briefly: co-IP; anti-HA antibody-conjugated beads precipitate HA-XIAP or its HA-tagged fragments from lysates of T24T cells; immunoblot. (In western blotting, separated proteins are transferred to a membrane and probed.)
The target of a further assay is GFP-tagged Sp1 (UniProt P08047). The assay is described as follows: co-IP; anti-GFP antibody-conjugated beads precipitate GFP-Sp1 from lysates of transfected T24T cells; immunoblot.

No constants are given. Whether binding was seen depends on the method and setting. Binding seen in cells or lysates may run through a third protein. Some binding calls cover weakened binding; strength is not graded here.

In the case of “GFP-tagged Sp1 (from UniProt P08047 1-785)”, the binding result in assay [1] is recorded as “binds”. For the substance “HA-tagged XIAP (X-linked inhibitor of apoptosis) (from UniProt P98170 1-497)”, in the assay with GFP-tagged Sp1, the binding result was “binds”.

For the substance Sp1 (from UniProt P08047 1-785), the binding result in assay [1] is “binds”.
